Measurements taken from patent publication US6458978B1, “Fluorous phosphines and process for their preparation” (Atofina Vlissingen B.V., priority 1998, dated 2002).
Marks after values point to notes of the source that are not given here.

Assay: Leaching of rhodium and phosphorus into the organic product phase and partitioning of rhodium species (ICP-AAS)
Conditions: for rhodium concentration in the product phase: by weight, after phase separation; for Leaching P / Leaching Rh: at T = 0° C.
Description: Rhodium leaching into the organic phase (as determined by ICP-AAS) was low. On average 0.12% of Rh per cycle was lost corresponding to a rhodium concentration of 3 ppm (by weight) in the product phase. Over 9 cycles only 1% of rhodium was lost despite of the phase separation method used. Leaching was higher for less fluorous pre-catalyst H{1,6}: 0.3% (6 ppm) of rhodium was present in the organic phase after phase separation.
The amount of leached rhodium allows to calculate the average partition coefficients (P) of the rhodium species present during phase separation (Table 6). […] Chem. Soc. 1999, 121, 2696-2704.). […] Chem. Int. Ed. Engl. 1997, 36, 1610-1612).
The retention of free uncoordinated fluorous phosphine can be used for recycling the intact catalyst system.
Only catalysts prepared through method 1 were used. Catalytic reactions were carried out under single phase fluorous conditions in c-CF3C6F11 (2 mL) at 80° C. After >90% conversion (monitored by the H2 uptake) the homogeneous reaction mixture was cooled to 0° C. and the upper organic layer was siphoned of. In between cycles the fluorous layer was kept under H2 atmosphere. By warming up to 80° C. and addition of a fresh portion of 1-octene (12.74 mmol) a new cycle was started. The organic phases resulting from the first cycle were analyzed by GC and ICP-AAS.

[1] = cycle 8, high value due to experimental error during phase separation
[2] = cycle 9, fresh c-CF3C6F11 added

Compound: C[Si](C)(CCC(F)(F)C(F)(F)C(F)(F)C(F)(F)C(F)(F)C(F)(F)F)c1ccc([PH](c2ccc([Si](C)(C)CCC(F)(F)C(F)(F)C(F)(F)C(F)(F)C(F)(F)C(F)(F)F)cc2)(c2ccc([Si](C)(C)CCC(F)(F)C(F)(F)C(F)(F)C(F)(F)C(F)(F)C(F)(F)F)cc2)[Rh]([Cl])([PH](c2ccc([Si](C)(C)CCC(F)(F)C(F)(F)C(F)(F)C(F)(F)C(F)(F)C(F)(F)F)cc2)(c2ccc([Si](C)(C)CCC(F)(F)C(F)(F)C(F)(F)C(F)(F)C(F)(F)C(F)(F)F)cc2)c2ccc([Si](C)(C)CCC(F)(F)C(F)(F)C(F)(F)C(F)(F)C(F)(F)C(F)(F)F)cc2)[PH](c2ccc([Si](C)(C)CCC(F)(F)C(F)(F)C(F)(F)C(F)(F)C(F)(F)C(F)(F)F)cc2)(c2ccc([Si](C)(C)CCC(F)(F)C(F)(F)C(F)(F)C(F)(F)C(F)(F)C(F)(F)F)cc2)c2ccc([Si](C)(C)CCC(F)(F)C(F)(F)C(F)(F)C(F)(F)C(F)(F)C(F)(F)F)cc2)cc1 [H{1,6}, (D{1,6})3RhCl]
- fluorous phosphine in the alkane product phases, share of total phosphorus in precatalyst: 8%
- fluorous phosphine present in the alkane product phases: 130 ppm
- rhodium present in the organic phase after phase separation: 0.3%
- rhodium concentration in the product phase: 6 ppm
- Leaching P (cycle 1, [1-octene]/[Rh] = 559): 8.1%
- Leaching Rh (cycle 1, [1-octene]/[Rh] = 559): 0.27%

Compound: C[Si](C)(CCC(F)(F)C(F)(F)C(F)(F)C(F)(F)C(F)(F)C(F)(F)C(F)(F)C(F)(F)F)c1ccc(P(c2ccc([Si](C)(C)CCC(F)(F)C(F)(F)C(F)(F)C(F)(F)C(F)(F)C(F)(F)C(F)(F)C(F)(F)F)cc2)c2ccc([Si](C)(C)CCC(F)(F)C(F)(F)C(F)(F)C(F)(F)C(F)(F)C(F)(F)C(F)(F)C(F)(F)F)cc2)cc1.C[Si](C)(CCC(F)(F)C(F)(F)C(F)(F)C(F)(F)C(F)(F)C(F)(F)C(F)(F)C(F)(F)F)c1ccc(P(c2ccc([Si](C)(C)CCC(F)(F)C(F)(F)C(F)(F)C(F)(F)C(F)(F)C(F)(F)C(F)(F)C(F)(F)F)cc2)c2ccc([Si](C)(C)CCC(F)(F)C(F)(F)C(F)(F)C(F)(F)C(F)(F)C(F)(F)C(F)(F)C(F)(F)F)cc2)cc1.C[Si](C)(CCC(F)(F)C(F)(F)C(F)(F)C(F)(F)C(F)(F)C(F)(F)C(F)(F)C(F)(F)F)c1ccc(P(c2ccc([Si](C)(C)CCC(F)(F)C(F)(F)C(F)(F)C(F)(F)C(F)(F)C(F)(F)C(F)(F)C(F)(F)F)cc2)c2ccc([Si](C)(C)CCC(F)(F)C(F)(F)C(F)(F)C(F)(F)C(F)(F)C(F)(F)C(F)(F)C(F)(F)F)cc2)cc1.[Cl][Rh] [H{1,8}, (D{1,8})3RhCl]
- fluorous phosphine in the alkane product phases, share of total phosphorus in precatalyst: 3%
- fluorous phosphine present in the alkane product phases: 64 ppm
- rhodium lost over 9 cycles: 1%
- rhodium concentration in the product phase: 3 ppm
- Leaching P (cycle 1, [1-octene]/[Rh] = 365): 2.34%
- Leaching Rh (cycle 1, [1-octene]/[Rh] = 365): 0.11%
- Leaching P (cycle 2): 2.06%
- Leaching Rh (cycle 2): 0.05%
- Leaching P (cycle 3): 3.24%
- Leaching Rh (cycle 3): 0.10%
- Leaching P (cycle 4): 3.20%
- Leaching Rh (cycle 4): 0.11%
- Leaching P (cycle 5): 3.52%
- Leaching Rh (cycle 5): 0.18%
- Leaching P (cycle 6): 2.15%
- Leaching Rh (cycle 6): 0.08%
- Leaching P (cycle 7): 2.34%
- Leaching Rh (cycle 7): 0.05%
- Leaching P [1]: 4.70^e %
- Leaching Rh [1]: 0.33^e %
- Leaching P [2]: 3.41%
- Leaching Rh [2]: 0.08%
- Rh lost per cycle, on average (leaching into the organic phase, ICP-AAS): 0.12%
